# Test results: the supplement of paper PMC12823440, “Inhibitors supercharge kinase turnover through native proteolytic circuits” (Nature, 2025)
# Amino acid sequences for entries named in this document (tags omitted).
# UniProt P21860, whole entry: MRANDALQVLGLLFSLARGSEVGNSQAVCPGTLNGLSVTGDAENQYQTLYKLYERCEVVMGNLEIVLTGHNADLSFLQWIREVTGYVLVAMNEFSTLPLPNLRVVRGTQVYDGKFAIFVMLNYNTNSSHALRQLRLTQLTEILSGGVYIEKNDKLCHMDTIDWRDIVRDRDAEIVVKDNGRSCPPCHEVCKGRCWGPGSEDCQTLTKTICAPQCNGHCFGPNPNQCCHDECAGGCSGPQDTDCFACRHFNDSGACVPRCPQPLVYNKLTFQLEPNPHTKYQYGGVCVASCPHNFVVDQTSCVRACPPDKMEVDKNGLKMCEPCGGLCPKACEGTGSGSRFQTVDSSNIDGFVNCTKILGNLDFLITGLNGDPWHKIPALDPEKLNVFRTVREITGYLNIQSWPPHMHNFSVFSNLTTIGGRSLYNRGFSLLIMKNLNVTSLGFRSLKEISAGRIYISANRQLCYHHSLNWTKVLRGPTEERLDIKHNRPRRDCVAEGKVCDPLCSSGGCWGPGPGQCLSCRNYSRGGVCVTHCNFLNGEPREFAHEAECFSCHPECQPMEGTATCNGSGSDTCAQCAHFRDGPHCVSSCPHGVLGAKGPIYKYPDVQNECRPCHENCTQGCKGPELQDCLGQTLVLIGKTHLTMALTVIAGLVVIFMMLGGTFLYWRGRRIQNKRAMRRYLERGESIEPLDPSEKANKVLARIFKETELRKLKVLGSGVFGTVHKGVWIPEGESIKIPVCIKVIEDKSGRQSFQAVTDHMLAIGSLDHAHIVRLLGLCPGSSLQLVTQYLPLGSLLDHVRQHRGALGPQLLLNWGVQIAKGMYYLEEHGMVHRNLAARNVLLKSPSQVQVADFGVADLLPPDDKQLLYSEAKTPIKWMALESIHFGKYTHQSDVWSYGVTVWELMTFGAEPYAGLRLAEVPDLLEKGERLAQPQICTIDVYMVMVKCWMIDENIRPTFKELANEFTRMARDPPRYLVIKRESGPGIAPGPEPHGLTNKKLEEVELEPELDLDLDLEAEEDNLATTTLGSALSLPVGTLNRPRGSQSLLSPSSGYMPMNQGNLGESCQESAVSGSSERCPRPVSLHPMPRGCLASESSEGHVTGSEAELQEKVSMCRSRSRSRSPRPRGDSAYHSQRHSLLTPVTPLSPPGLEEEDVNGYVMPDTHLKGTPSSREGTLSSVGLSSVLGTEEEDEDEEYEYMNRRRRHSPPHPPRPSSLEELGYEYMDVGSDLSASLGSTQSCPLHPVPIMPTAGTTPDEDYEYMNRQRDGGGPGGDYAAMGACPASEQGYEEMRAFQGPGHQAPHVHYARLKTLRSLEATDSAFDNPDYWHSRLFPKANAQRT
# UniProt Q15303, whole entry R711C: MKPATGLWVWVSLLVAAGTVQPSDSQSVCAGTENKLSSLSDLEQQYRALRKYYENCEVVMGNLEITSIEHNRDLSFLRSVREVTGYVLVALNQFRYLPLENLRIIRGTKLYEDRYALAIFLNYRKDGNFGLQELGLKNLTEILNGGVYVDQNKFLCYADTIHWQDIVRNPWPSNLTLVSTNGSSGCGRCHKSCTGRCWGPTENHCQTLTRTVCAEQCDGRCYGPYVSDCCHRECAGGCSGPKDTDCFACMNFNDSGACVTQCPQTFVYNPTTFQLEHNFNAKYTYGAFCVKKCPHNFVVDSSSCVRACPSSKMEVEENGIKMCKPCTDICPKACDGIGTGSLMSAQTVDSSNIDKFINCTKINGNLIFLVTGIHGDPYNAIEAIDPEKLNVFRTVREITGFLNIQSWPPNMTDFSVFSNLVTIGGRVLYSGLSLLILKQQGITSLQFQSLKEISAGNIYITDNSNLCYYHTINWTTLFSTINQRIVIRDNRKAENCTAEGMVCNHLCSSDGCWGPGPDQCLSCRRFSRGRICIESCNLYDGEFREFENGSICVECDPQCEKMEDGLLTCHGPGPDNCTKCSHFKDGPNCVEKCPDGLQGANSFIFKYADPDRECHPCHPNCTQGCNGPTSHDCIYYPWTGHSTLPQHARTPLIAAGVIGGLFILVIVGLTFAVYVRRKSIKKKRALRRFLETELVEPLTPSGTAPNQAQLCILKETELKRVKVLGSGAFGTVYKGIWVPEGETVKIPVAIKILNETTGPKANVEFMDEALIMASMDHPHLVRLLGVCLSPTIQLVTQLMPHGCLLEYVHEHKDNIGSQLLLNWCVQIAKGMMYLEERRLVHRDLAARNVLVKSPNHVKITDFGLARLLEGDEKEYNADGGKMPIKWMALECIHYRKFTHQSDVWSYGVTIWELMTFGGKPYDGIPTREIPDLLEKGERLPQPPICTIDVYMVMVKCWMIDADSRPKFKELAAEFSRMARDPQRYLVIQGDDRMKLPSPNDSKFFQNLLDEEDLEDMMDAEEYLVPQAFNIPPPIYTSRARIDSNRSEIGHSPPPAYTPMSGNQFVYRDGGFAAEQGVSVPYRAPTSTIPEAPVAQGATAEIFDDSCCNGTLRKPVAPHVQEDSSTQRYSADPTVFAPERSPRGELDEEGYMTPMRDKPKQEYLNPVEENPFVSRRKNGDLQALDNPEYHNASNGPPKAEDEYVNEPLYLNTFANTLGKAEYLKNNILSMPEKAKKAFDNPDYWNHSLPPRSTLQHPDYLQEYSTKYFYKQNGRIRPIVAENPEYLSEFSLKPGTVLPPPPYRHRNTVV
# Structures can show the parent of a compound that is named as a salt. The list shows a part of the results. Hit calls seldom repeat between salt and free forms of one compound.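 Kinases were expressed as nanoluciferase fusions in K562 cells and luminescence was read every 4 h between 2 and 18 h as percent of control, DMSO set to 100% and a positive control to 0%. A time point counts as decreased when the signal drops significantly (2 sigma). The hit call is the authors' own, does not follow from the count of time points alone, and its rule is not shown.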
# Target: ERBB3 (UniProt P21860)
# Experiment: kinase-Nluc reporter destabilization hit call (1 = scored as downregulated) (binary); higher = compound decreases kinase abundance
# Conditions: K562; 2-18 h
row,SMILES,kinase-Nluc reporter destabilization hit call
1,CC1=C[C@]23C(=O)[C@@H](C=C(CO)[C@@H](O)[C@]2(O)[C@H]1O)[C@H]1[C@@H](C[C@H]3C)C1(C)C [Ingenol] (10 µM),inactive: 0
2,C=C[C@H]1CN2CC[C@]3(C(=O)Nc4ccccc43)[C@@H]2C[C@@H]1/C(=C\OC)C(=O)OC [Corynoxeine] (2 µM),inactive: 0
3,O=C(O)c1sc2cc(Cl)ccc2c1Cl (10 µM),inactive: 0
4,C[C@H]1CC[C@]2(NC1)O[C@H]1C[C@H]3[C@@H]4CC[C@H]5C[C@@H](O)CC[C@]5(C)[C@H]4CC[C@]3(C)[C@H]1[C@@H]2C [Tomatidine (hydrochloride)] (10 µM),inactive: 0
5,O=C1C=CC[C@@H]2[C@H]3CCCN4CCC[C@@H](CN12)[C@@H]34 [Sophocarpine (monohydrate)] (2.5 µM),inactive: 0
6,Cc1n[nH]cc1-c1cc2nc([C@@H]3CC4CCN3CC4)[nH]c(=O)c2s1 [Simurosertib] (2.5 µM),inactive: 0
7,O=C(N[C@@H](COc1ccc2[nH]c(=O)[nH]c2c1)c1ccccc1)c1cccn(Cc2ccc(F)c(F)c2)c1=O (2.5 µM),inactive: 0
8,O=C(/C=C/c1ccccc1)OC[C@H]1O[C@@H](O[C@@H]2OC=C[C@H]3[C@H](O)[C@@H]4O[C@]4(CO)[C@@H]23)[C@H](O)[C@@H](O)[C@@H]1O [Picroside I] (10 µM),inactive: 0
9,C[C@@H]1CC[C@H]2[C@@H](C)C(=O)O[C@@H]3O[C@@]4(C)CC[C@@H]1[C@]32OO4 [Artemisinin] (10 µM),inactive: 0
10,N#CC(C#N)=Cc1ccc([N+](=O)[O-])c(O)c1 (10 µM),inactive: 0
11,C[C@H](CCC(=O)O)C[C@H](C)C[C@H](C)C(=O)/C=C(\O)[C@H](C)C[C@H](C)C/C=C/[C@@H](C)[C@@H](O)[C@@H](C)[C@@H](O)C[C@@H]1CC[C@@](C)([C@H]2CC[C@@](C)([C@@H](C)O)O2)O1 [Ionomycin (calcium)] (2.5 µM),inactive: 0
12,CC1C(=O)OC2C(O)C34C5OC(=O)C3(OC3OC(=O)C(O)C34C(C(C)(C)C)C5O)C12O (stereo not drawn) [Ginkgolide C] (10 µM),inactive: 0
13,Cn1cc(C2=C(c3cn(C4CCN(Cc5ccccn5)CC4)c4ccccc34)C(=O)NC2=O)c2ccccc21 [Enzastaurin] (10 µM),inactive: 0
14,O=c1[nH]c2ccccc2n1C1CCN(Cc2ccc(-c3[nH]c4cc5ncnc5cc4nc3-c3ccccc3)cc2)CC1 [AKT inhibitor VIII] (2.5 µM),inactive: 0
15,CCN1CCN(C(=O)Cc2ccc(Nc3ncc(F)c(Nc4ccc(C(=O)Nc5ccccc5Cl)cc4)n3)cc2)CC1 (2.5 µM),inactive: 0
16,C=CC(=O)N[C@H]1C=C(C)c2c(-c3cnc4ccccc4c3)c3c(N)ncnc3n2C1 (10 µM),inactive: 0
17,CC(C)(C)c1cc(C=C(C#N)C#N)cc(Br)c1O (2.5 µM),inactive: 0
18,CCCCNc1nc(N)c2[nH]c(=O)n(Cc3ccc(C)nc3)c2n1 (10 µM),inactive: 0
19,C=CC(=O)Nc1ccc2[nH]c(=O)n(C3CCN(Cc4ccc(-c5nc6cc[nH]c(=O)c6cc5-c5ccccc5)cc4)CC3)c2c1 [Borussertib] (10 µM),inactive: 0
20,COc1ccc(N(C(=O)Oc2c(C)cccc2C)c2ccnc(Nc3ccc(N4CCN(C)CC4)cc3)n2)c(OC)c1 (2.5 µM),inactive: 0
21,COc1ccc2c(c1)[nH]c1c(C)nccc12 [Harmine] (10 µM),inactive: 0
22,O=c1cc(O)c2ccccc2o1 [4-Hydroxycoumarin] (10 µM),inactive: 0
23,CC(=O)c1c(O)c(C)c(O)c(Cc2c(O)c3c(c(C(=O)/C=C/c4ccccc4)c2O)OC(C)(C)C=C3)c1O [Rottlerin] (2 µM),inactive: 0
24,N#CC(C#N)=Cc1ccc(O)c(O)c1 [Tyrphostin 23] (10 µM),inactive: 0
25,C/C(O)=C(\C#N)C(=O)Nc1cc(Br)ccc1Br (10 µM),inactive: 0
26,Cc1ccccc1-n1c(Cn2ncc3c(N)ncnc32)nc2cccc(C)c2c1=O (10 µM),inactive: 0
27,COc1cc2c(cc1F)C(c1ccccc1Cl)=Nc1c(n[nH]c1C)N2 (0.5 µM),inactive: 0
28,COc1ccc2c(c1)/C(=C/c1cnc[nH]1)C(=O)N2 (2.5 µM),inactive: 0
29,O=[N+]([O-])/C=C/c1ccc2c(c1)OCO2 (2.5 µM),inactive: 0

# Target: ERBB4_R711C (clone: ERBB4_mut) (UniProt Q15303)
# Experiment: as above
# Conditions: K562; 2-18 h
row,SMILES,kinase-Nluc reporter destabilization hit call
1,CC1=C[C@]23C(=O)[C@@H](C=C(CO)[C@@H](O)[C@]2(O)[C@H]1O)[C@H]1[C@@H](C[C@H]3C)C1(C)C [Ingenol] (10 µM),inactive: 0
2,C=C[C@H]1CN2CC[C@]3(C(=O)Nc4ccccc43)[C@@H]2C[C@@H]1/C(=C\OC)C(=O)OC [Corynoxeine] (2 µM),inactive: 0
3,O=C(O)c1sc2cc(Cl)ccc2c1Cl (10 µM),inactive: 0
4,C[C@H]1CC[C@]2(NC1)O[C@H]1C[C@H]3[C@@H]4CC[C@H]5C[C@@H](O)CC[C@]5(C)[C@H]4CC[C@]3(C)[C@H]1[C@@H]2C [Tomatidine (hydrochloride)] (10 µM),inactive: 0
5,O=C1C=CC[C@@H]2[C@H]3CCCN4CCC[C@@H](CN12)[C@@H]34 [Sophocarpine (monohydrate)] (2.5 µM),inactive: 0
6,Cc1n[nH]cc1-c1cc2nc([C@@H]3CC4CCN3CC4)[nH]c(=O)c2s1 [Simurosertib] (2.5 µM),inactive: 0
7,O=C(N[C@@H](COc1ccc2[nH]c(=O)[nH]c2c1)c1ccccc1)c1cccn(Cc2ccc(F)c(F)c2)c1=O (2.5 µM),inactive: 0
8,O=C(/C=C/c1ccccc1)OC[C@H]1O[C@@H](O[C@@H]2OC=C[C@H]3[C@H](O)[C@@H]4O[C@]4(CO)[C@@H]23)[C@H](O)[C@@H](O)[C@@H]1O [Picroside I] (10 µM),inactive: 0
9,C[C@@H]1CC[C@H]2[C@@H](C)C(=O)O[C@@H]3O[C@@]4(C)CC[C@@H]1[C@]32OO4 [Artemisinin] (10 µM),inactive: 0
10,N#CC(C#N)=Cc1ccc([N+](=O)[O-])c(O)c1 (10 µM),inactive: 0
11,C[C@H](CCC(=O)O)C[C@H](C)C[C@H](C)C(=O)/C=C(\O)[C@H](C)C[C@H](C)C/C=C/[C@@H](C)[C@@H](O)[C@@H](C)[C@@H](O)C[C@@H]1CC[C@@](C)([C@H]2CC[C@@](C)([C@@H](C)O)O2)O1 [Ionomycin (calcium)] (2.5 µM),inactive: 0
12,CC1C(=O)OC2C(O)C34C5OC(=O)C3(OC3OC(=O)C(O)C34C(C(C)(C)C)C5O)C12O (stereo not drawn) [Ginkgolide C] (10 µM),inactive: 0
13,Cn1cc(C2=C(c3cn(C4CCN(Cc5ccccn5)CC4)c4ccccc34)C(=O)NC2=O)c2ccccc21 [Enzastaurin] (10 µM),inactive: 0
14,O=c1[nH]c2ccccc2n1C1CCN(Cc2ccc(-c3[nH]c4cc5ncnc5cc4nc3-c3ccccc3)cc2)CC1 [AKT inhibitor VIII] (2.5 µM),inactive: 0
15,CCN1CCN(C(=O)Cc2ccc(Nc3ncc(F)c(Nc4ccc(C(=O)Nc5ccccc5Cl)cc4)n3)cc2)CC1 (2.5 µM),inactive: 0
16,C=CC(=O)N[C@H]1C=C(C)c2c(-c3cnc4ccccc4c3)c3c(N)ncnc3n2C1 (10 µM),inactive: 0
17,CC(C)(C)c1cc(C=C(C#N)C#N)cc(Br)c1O (2.5 µM),inactive: 0
18,CCCCNc1nc(N)c2[nH]c(=O)n(Cc3ccc(C)nc3)c2n1 (10 µM),inactive: 0
19,C=CC(=O)Nc1ccc2[nH]c(=O)n(C3CCN(Cc4ccc(-c5nc6cc[nH]c(=O)c6cc5-c5ccccc5)cc4)CC3)c2c1 [Borussertib] (10 µM),inactive: 0
20,COc1ccc(N(C(=O)Oc2c(C)cccc2C)c2ccnc(Nc3ccc(N4CCN(C)CC4)cc3)n2)c(OC)c1 (2.5 µM),inactive: 0
21,COc1ccc2c(c1)[nH]c1c(C)nccc12 [Harmine] (10 µM),inactive: 0
22,O=c1cc(O)c2ccccc2o1 [4-Hydroxycoumarin] (10 µM),inactive: 0
23,CC(=O)c1c(O)c(C)c(O)c(Cc2c(O)c3c(c(C(=O)/C=C/c4ccccc4)c2O)OC(C)(C)C=C3)c1O [Rottlerin] (2 µM),inactive: 0
24,N#CC(C#N)=Cc1ccc(O)c(O)c1 [Tyrphostin 23] (10 µM),inactive: 0
25,C/C(O)=C(\C#N)C(=O)Nc1cc(Br)ccc1Br (10 µM),inactive: 0
26,Cc1ccccc1-n1c(Cn2ncc3c(N)ncnc32)nc2cccc(C)c2c1=O (10 µM),inactive: 0
27,COc1cc2c(cc1F)C(c1ccccc1Cl)=Nc1c(n[nH]c1C)N2 (0.5 µM),inactive: 0
28,COc1ccc2c(c1)/C(=C/c1cnc[nH]1)C(=O)N2 (2.5 µM),inactive: 0
29,O=[N+]([O-])/C=C/c1ccc2c(c1)OCO2 (2.5 µM),inactive: 0
